# Reference: the supplement of paper PMC12067093, “Discovery and optimisation of a covalent ligand for TRIM25 and its application to targeted protein ubiquitination” (Chemical Science, 2025)
# By UniProt entry, the sequences of proteins in these tests, tags left out. Where a name states a change or a piece, a line headed by the entry shows the natural chain unless it says otherwise.
# UniProt Q99570, whole entry, looked up: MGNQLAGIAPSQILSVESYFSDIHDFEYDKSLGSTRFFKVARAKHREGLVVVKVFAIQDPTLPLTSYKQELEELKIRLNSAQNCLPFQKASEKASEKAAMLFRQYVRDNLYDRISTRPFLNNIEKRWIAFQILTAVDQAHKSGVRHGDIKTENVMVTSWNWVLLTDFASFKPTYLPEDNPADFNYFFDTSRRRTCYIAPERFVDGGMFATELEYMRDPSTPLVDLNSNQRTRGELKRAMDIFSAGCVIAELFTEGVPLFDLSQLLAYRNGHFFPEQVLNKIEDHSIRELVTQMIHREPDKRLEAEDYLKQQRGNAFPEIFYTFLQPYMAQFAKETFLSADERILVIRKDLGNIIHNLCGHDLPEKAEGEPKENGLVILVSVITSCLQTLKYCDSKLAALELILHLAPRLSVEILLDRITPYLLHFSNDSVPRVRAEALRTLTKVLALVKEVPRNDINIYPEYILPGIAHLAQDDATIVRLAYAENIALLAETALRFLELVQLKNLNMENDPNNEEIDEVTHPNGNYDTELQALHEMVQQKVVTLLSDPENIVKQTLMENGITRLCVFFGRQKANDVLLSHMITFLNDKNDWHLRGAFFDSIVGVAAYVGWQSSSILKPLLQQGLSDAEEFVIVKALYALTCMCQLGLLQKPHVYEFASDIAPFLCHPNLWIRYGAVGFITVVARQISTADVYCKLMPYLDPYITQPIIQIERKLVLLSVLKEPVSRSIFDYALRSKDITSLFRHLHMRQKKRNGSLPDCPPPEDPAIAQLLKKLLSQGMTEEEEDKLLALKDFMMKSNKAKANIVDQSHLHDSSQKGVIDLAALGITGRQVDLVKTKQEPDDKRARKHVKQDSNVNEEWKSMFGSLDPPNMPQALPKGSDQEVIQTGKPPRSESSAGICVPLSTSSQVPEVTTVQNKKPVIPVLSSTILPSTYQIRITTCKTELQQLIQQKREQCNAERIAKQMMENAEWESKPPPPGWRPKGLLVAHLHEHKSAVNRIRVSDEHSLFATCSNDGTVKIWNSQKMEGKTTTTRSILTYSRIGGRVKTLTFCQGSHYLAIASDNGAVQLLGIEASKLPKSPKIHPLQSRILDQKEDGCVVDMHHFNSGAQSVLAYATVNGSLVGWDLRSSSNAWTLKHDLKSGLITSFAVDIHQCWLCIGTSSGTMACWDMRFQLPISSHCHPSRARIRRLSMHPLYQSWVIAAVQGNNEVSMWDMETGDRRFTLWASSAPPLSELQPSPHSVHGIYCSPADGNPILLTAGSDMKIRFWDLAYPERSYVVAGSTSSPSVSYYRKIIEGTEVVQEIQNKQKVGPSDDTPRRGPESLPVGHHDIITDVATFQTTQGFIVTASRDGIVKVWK
# UniProt Q03405, whole entry, looked up: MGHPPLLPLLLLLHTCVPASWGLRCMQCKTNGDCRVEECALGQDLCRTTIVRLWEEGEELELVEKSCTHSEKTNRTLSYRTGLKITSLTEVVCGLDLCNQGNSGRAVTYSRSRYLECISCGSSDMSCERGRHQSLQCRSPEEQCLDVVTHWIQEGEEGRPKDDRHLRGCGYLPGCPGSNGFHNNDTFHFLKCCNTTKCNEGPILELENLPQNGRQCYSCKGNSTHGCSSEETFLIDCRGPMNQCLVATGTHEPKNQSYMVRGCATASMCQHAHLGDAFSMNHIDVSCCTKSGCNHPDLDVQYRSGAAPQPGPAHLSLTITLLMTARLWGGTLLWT
# UniProt Q9GZP4: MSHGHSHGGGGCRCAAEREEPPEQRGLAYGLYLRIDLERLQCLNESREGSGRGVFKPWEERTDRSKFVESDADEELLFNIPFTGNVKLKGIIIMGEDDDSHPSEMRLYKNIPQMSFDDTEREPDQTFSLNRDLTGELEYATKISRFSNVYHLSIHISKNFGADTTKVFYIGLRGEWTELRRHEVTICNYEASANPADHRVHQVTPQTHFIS
# UniProt P48739: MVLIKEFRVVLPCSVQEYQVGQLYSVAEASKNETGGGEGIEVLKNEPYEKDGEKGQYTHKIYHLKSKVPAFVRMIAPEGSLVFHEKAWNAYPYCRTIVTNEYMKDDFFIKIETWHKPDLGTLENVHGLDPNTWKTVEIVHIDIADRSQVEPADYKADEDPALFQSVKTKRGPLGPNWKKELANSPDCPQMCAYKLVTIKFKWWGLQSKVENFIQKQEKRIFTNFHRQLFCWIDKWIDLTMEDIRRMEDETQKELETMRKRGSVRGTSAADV
# UniProt P16885: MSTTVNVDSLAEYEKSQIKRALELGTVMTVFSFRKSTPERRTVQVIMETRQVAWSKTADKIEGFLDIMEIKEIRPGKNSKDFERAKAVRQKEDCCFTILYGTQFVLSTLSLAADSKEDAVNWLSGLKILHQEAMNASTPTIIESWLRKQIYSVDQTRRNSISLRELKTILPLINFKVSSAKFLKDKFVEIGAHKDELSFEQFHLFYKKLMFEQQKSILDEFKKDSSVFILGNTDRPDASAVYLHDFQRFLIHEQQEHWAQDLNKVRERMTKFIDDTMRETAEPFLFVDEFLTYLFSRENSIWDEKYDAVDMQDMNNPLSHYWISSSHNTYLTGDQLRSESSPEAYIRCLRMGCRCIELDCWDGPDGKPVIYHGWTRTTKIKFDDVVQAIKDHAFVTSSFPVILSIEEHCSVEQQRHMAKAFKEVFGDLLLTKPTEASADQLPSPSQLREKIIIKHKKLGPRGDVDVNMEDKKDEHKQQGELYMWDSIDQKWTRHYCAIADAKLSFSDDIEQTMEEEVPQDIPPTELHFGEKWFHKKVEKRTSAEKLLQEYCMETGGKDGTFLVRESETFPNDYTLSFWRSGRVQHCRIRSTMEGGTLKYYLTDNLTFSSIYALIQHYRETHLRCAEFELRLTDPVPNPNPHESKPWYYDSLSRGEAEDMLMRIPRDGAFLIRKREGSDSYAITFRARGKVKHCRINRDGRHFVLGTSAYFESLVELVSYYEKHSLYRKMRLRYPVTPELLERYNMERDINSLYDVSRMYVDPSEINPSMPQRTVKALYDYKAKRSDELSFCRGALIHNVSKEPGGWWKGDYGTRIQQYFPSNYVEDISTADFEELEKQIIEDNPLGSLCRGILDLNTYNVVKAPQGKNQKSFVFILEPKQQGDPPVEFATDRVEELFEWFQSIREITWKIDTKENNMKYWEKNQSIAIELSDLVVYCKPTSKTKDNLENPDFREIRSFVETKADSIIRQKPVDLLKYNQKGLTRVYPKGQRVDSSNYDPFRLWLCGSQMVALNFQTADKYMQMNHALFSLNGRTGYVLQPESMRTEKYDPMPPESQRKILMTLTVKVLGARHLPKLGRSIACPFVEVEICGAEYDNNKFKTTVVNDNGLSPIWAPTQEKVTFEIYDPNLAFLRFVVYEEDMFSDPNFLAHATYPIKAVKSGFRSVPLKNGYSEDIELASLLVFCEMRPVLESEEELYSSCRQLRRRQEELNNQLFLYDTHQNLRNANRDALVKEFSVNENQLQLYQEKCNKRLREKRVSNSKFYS
# UniProt Q8TBX8: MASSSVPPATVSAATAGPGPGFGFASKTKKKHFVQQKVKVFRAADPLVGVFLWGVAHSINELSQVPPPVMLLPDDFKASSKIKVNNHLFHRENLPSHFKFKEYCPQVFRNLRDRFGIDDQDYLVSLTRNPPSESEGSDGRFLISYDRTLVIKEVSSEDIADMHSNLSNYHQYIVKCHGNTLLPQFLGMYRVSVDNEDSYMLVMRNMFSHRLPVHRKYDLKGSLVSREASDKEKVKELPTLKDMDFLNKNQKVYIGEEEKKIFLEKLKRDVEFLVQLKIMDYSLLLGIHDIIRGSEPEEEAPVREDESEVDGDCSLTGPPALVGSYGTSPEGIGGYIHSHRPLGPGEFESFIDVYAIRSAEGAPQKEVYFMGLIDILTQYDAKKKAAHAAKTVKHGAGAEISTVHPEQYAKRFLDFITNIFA
# UniProt P08567: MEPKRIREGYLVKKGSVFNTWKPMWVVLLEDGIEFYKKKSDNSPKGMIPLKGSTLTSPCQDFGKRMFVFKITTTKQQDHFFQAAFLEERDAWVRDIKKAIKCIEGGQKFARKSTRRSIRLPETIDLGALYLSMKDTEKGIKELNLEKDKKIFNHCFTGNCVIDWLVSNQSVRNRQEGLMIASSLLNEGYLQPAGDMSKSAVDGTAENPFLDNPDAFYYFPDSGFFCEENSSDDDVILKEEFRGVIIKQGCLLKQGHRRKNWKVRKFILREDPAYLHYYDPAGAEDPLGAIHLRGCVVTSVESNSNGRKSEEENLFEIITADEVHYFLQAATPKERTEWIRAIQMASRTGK
# UniProt O00625: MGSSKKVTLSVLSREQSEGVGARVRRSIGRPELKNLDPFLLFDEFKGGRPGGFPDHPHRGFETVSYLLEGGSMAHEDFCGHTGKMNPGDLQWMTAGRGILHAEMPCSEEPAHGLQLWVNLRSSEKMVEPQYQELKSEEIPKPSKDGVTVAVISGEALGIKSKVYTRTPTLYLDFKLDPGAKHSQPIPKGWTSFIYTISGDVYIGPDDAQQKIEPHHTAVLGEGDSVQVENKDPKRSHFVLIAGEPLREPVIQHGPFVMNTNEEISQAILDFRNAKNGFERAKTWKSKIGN
# UniProt Q96CS7: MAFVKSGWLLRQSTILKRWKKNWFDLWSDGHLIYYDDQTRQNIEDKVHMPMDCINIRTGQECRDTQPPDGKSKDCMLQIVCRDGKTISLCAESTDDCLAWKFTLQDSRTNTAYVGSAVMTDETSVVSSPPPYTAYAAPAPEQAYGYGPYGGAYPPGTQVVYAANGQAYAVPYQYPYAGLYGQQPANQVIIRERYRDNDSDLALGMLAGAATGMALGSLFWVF
# UniProt Q8TD55: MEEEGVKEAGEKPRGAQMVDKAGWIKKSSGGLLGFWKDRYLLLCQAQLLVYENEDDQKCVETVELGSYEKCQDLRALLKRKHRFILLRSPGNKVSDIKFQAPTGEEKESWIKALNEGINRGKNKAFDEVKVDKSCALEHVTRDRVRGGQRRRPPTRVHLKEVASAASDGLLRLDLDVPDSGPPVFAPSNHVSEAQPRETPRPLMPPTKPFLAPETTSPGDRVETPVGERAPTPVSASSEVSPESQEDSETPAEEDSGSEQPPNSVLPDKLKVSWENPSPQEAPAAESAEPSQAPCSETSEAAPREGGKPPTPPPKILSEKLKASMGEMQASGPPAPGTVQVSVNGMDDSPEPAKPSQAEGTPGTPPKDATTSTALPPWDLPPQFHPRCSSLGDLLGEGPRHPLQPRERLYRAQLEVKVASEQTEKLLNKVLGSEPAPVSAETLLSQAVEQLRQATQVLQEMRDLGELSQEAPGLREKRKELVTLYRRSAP
# UniProt P54277: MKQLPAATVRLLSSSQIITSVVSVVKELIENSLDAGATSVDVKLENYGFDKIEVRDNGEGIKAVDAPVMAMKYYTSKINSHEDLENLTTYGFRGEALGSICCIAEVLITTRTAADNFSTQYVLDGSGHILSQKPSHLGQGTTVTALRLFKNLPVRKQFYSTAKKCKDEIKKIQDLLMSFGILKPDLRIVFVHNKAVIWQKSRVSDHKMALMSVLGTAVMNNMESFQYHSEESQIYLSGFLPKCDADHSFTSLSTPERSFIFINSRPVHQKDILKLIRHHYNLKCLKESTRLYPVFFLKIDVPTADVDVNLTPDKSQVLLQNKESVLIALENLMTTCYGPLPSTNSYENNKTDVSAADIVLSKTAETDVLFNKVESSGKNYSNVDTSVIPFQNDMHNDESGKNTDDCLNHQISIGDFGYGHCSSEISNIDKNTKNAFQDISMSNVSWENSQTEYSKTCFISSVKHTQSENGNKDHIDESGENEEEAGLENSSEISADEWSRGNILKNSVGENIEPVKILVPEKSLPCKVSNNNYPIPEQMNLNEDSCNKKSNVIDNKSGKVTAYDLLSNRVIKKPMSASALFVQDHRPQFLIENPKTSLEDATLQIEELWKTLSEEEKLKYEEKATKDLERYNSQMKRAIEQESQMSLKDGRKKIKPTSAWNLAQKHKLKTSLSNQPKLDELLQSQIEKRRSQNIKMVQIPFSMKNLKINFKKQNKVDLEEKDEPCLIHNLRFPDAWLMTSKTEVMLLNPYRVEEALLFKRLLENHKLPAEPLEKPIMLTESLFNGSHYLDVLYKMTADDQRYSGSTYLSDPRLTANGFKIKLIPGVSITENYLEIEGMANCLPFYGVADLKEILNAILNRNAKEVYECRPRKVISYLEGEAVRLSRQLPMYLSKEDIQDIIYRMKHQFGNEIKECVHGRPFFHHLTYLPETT
# UniProt Q8IYS1: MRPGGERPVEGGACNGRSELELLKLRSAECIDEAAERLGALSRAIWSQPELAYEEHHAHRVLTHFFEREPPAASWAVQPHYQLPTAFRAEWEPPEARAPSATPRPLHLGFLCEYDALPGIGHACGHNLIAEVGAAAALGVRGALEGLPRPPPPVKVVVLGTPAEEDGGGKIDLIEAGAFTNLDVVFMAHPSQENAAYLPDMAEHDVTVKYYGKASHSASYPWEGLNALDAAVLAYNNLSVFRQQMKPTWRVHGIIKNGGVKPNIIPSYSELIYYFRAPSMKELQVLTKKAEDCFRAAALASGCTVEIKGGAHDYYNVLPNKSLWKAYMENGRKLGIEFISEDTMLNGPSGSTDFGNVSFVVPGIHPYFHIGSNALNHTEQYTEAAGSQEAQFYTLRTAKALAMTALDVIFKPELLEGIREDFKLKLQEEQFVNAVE
# The other results are listed elsewhere or left out.
# Compound: CC1Cc2ccccc2N1C(=O)C1CCCN(C1)C(=O)CCl (mixture of isomers) [TRIM25 ligand 11 (diastereomer mixture)]
# Assay: probe-labelled cysteine peptide fold change vs DMSO (competition) (log2 fold change); higher = less target engagement (more negative = stronger competition)
# Conditions: 10 µM; THP-1; incubation time: 4 h
# 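Note: competitive chemoproteomic profiling in live THP-1 cells with an iodoacetamide desthiobiotin (IA-DTB) probe, comparing probe-labelled peptide intensities in compound-treated cells against DMSO-treated controls.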
row,Target,probe-labelled cysteine peptide fold change
1,PIK3R4_Q99570_955_EQCNAER (UniProt Q99570),-0.0631
2,PKM_P14618_424_CCSGAIIVLTK (UniProt P14618),0.0363
3,PLAUR_Q03405_46_VEECALGQDLCR (UniProt Q03405),-0.103
4,PLCB2_Q00722_188_RVEAALSACHLPK (UniProt Q00722),0.0409
5,PMVK_Q15126_92_RQADPGFFCR (UniProt Q15126),-0.175
6,PITHD1_Q9GZP4_187_HEVTICNYEASANPADHR (UniProt Q9GZP4),0.323
7,PLEKHA2_Q9HB19_11_ICGFLDIEEHENSGK (UniProt Q9HB19),0.099
8,PML_P29590_227_CDISAEIQQR (UniProt P29590),-0.0239
9,PLAA_Q9Y263_193_TFSGHEDCVR (UniProt Q9Y263),0.0747
10,PKM_P14618_474_GIFPVLCK (UniProt P14618),-0.00513
11,PITPNB_P48739_94_AWNAYPYCR (UniProt P48739),0.000331
12,PLOD1_Q02809_680_VGVDYEGGGCR (UniProt Q02809),-0.0514
13,PLAA_Q9Y263_605_AINCPEDIVFPALDILR (UniProt Q9Y263),-0.0621
14,PLCG2_P16885_791_SDELSFCR (UniProt P16885),0.0473
15,PLCG2_P16885_409_DHAFVTSSFPVILSIEEHCSVEQQR (UniProt P16885),0.179
16,PIP4K2C_Q8TBX8_176_CHGNTLLPQFLGMYR (UniProt Q8TBX8),-0.125
17,PKN3_Q6P5Z2_131_QGAENMTHTCASGTPK (UniProt Q6P5Z2),0.116
18,PMM2_O15305_9_AAPGPALCLFDVDGTLTAPR (UniProt O15305),0.042
19,PLG_P00747_398_KCQSWSSMTPHR (UniProt P00747),-0.0835

row,Target,probe-labelled cysteine peptide fold change
1,PLEK_P08567_155+160_IFNHCFTGNCVIDWLVSNQSVR (UniProt P08567),-0.164
2,PKN2_Q16513_704_DEVDSLMCEK (UniProt Q16513),-0.0507
3,PMS2_P54278_591_EEILSSSDICQK (UniProt P54278),0.17
4,PINX1_Q96BK5_94_NNHLGLGATINNEDNWIAHQDDFNQLLAELNTCHGQETTDSSDKK (UniProt Q96BK5),0.0197
5,PLXNB2_O15031_351_DIFYKPFHGDIQCGGHAPGSSK (UniProt O15031),-0.0778
6,PLXNB2_O15031_112_LVECGSLFK (UniProt O15031),0.247
7,PLAA_Q9Y263_208_GLAILSETEFLSCANDASIR (UniProt Q9Y263),0.14
8,PIR_O00625_79_GFETVSYLLEGGSMAHEDFCGHTGK (UniProt O00625),-0.0378
9,PLEKHA2_Q9HB19_332_SISLTRPGSSSLSSGPNSILCR (UniProt Q9HB19),-0.0575
10,PLOD3_O60568_494_DVFSGSDTDPDMAFCK (UniProt O60568),-0.109
11,PKM_P14618_49_NTGIICTIGPASR (UniProt P14618),-0.0858
12,PLEKHB2_Q96CS7_75+81_DCMLQIVCR (UniProt Q96CS7),-0.373
13,PLD4_Q96BZ4_502_YAVGLDGQAPGQDCVWQG (UniProt Q96BZ4),-0.0872
14,PLEKHO2_Q8TD55_59_CVETVELGSYEK (UniProt Q8TD55),0.0583
15,PLK1_P53350_544_LILCPLMAAVTYIDEKR (UniProt P53350),-0.228
16,PMS1_P54277_243_CDADHSFTSLSTPER (UniProt P54277),0.119
17,PLCG2_P16885_360_CIELDCWDGPDGKPVIYHGWTR (UniProt P16885),0.00239
18,PM20D2_Q8IYS1_303_AAALASGCTVEIK (UniProt Q8IYS1),0.154
19,PLCB3_Q01970_193_RVETALESCGLK (UniProt Q01970),-0.11

# Same assay, conditions: 50 µM; THP-1; incubation time: 4 h
row,Target,probe-labelled cysteine peptide fold change
1,PIK3R4_Q99570_955_EQCNAER (UniProt Q99570),-0.105
2,PKM_P14618_424_CCSGAIIVLTK (UniProt P14618),0.0349
3,PLAUR_Q03405_46_VEECALGQDLCR (UniProt Q03405),-0.141
4,PLCB2_Q00722_188_RVEAALSACHLPK (UniProt Q00722),-0.0651
5,PMVK_Q15126_92_RQADPGFFCR (UniProt Q15126),-0.0533
6,PITHD1_Q9GZP4_187_HEVTICNYEASANPADHR (UniProt Q9GZP4),-0.301
7,PLEKHA2_Q9HB19_11_ICGFLDIEEHENSGK (UniProt Q9HB19),0.144
8,PML_P29590_227_CDISAEIQQR (UniProt P29590),-0.000233
9,PLAA_Q9Y263_193_TFSGHEDCVR (UniProt Q9Y263),-0.0639
10,PKM_P14618_474_GIFPVLCK (UniProt P14618),0.0371
11,PITPNB_P48739_94_AWNAYPYCR (UniProt P48739),-0.0202
12,PLOD1_Q02809_680_VGVDYEGGGCR (UniProt Q02809),0.25
13,PLAA_Q9Y263_605_AINCPEDIVFPALDILR (UniProt Q9Y263),-0.002
14,PLCG2_P16885_791_SDELSFCR (UniProt P16885),0.0374
15,PLCG2_P16885_409_DHAFVTSSFPVILSIEEHCSVEQQR (UniProt P16885),0.167
16,PIP4K2C_Q8TBX8_176_CHGNTLLPQFLGMYR (UniProt Q8TBX8),0.22
17,PKN3_Q6P5Z2_131_QGAENMTHTCASGTPK (UniProt Q6P5Z2),0.106
18,PMM2_O15305_9_AAPGPALCLFDVDGTLTAPR (UniProt O15305),0.167
19,PLG_P00747_398_KCQSWSSMTPHR (UniProt P00747),-0.104

row,Target,probe-labelled cysteine peptide fold change
1,PLEK_P08567_155+160_IFNHCFTGNCVIDWLVSNQSVR (UniProt P08567),-0.276
2,PKN2_Q16513_704_DEVDSLMCEK (UniProt Q16513),-0.179
3,PMS2_P54278_591_EEILSSSDICQK (UniProt P54278),0.0372
4,PINX1_Q96BK5_94_NNHLGLGATINNEDNWIAHQDDFNQLLAELNTCHGQETTDSSDKK (UniProt Q96BK5),-0.00386
5,PLXNB2_O15031_351_DIFYKPFHGDIQCGGHAPGSSK (UniProt O15031),-0.153
6,PLXNB2_O15031_112_LVECGSLFK (UniProt O15031),0.163
7,PLAA_Q9Y263_208_GLAILSETEFLSCANDASIR (UniProt Q9Y263),0.0261
8,PIR_O00625_79_GFETVSYLLEGGSMAHEDFCGHTGK (UniProt O00625),-0.172
9,PLEKHA2_Q9HB19_332_SISLTRPGSSSLSSGPNSILCR (UniProt Q9HB19),-0.276
10,PLOD3_O60568_494_DVFSGSDTDPDMAFCK (UniProt O60568),-0.117
11,PKM_P14618_49_NTGIICTIGPASR (UniProt P14618),-0.0306
12,PLEKHB2_Q96CS7_75+81_DCMLQIVCR (UniProt Q96CS7),-0.142
13,PLD4_Q96BZ4_502_YAVGLDGQAPGQDCVWQG (UniProt Q96BZ4),0.27
14,PLEKHO2_Q8TD55_59_CVETVELGSYEK (UniProt Q8TD55),-0.159
15,PLK1_P53350_544_LILCPLMAAVTYIDEKR (UniProt P53350),0.028
16,PMS1_P54277_243_CDADHSFTSLSTPER (UniProt P54277),0.00235
17,PLCG2_P16885_360_CIELDCWDGPDGKPVIYHGWTR (UniProt P16885),0.163
18,PM20D2_Q8IYS1_303_AAALASGCTVEIK (UniProt Q8IYS1),-0.0302
19,PLCB3_Q01970_193_RVETALESCGLK (UniProt Q01970),0.15
